From PubChem BioAssay AID493014 (National Center for Advancing Translational Sciences (NCATS), 2011)
The other results are listed elsewhere or left out. These are further read-outs of the screen, such as a control signal, another cell line or another target. No call is given for them. Compounds called inactive in the main read-out are mostly missing here. Potencies come from curve fits of mixed quality, noted in brackets.

Assay: qHTS Assay to Find Inhibitors of Chronic Active B-Cell Receptor Signaling
Details: ABC-DLBCL IkBa-CBG/CBR reporter, luminescence ratio (green luciferase fused to IkBa over red control in TMD8 lymphoma cells), 4 h; measured here: CBR red luminescence, cell number
How it was run: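 Cell line TMD8 (human ABC DLBCL), stably expressing tet-inducible CBG68-IkBa fusion and CBR; IMDM/0.5% FBS; cpd up to 46 uM; dox induction, 4 h, 37C/5% CO2; dual luminescence; green/red ratio; MG132 control.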

Q: With `Cc1cccc(NC(=O)/C(C#N)=C\c2cn(CC(=O)O)c3ccccc23)c1` as the compound, how does the AC50 read?
A: The AC50 was 14.1 µM [falling, partial curve, poor fit].

Q: With `COc1ccc(Br)cc1CNC(=O)Nc1cccs1` as the compound, how does the AC50 read?
A: The AC50 was 29.1 µM [falling, single point].

Q: With `O=CC(=O)c1ccccc1` as the compound, how does the AC50 read?
A: Its AC50 is 2.06 µM [falling, full curve, poor fit].

Q: For `CC(C)/C(=N/Nc1ccccc1[N+](=O)[O-])c1ccccc1`, which AC50 is on record?
A: The AC50 was 11.2 µM [rising, single point].

Q: With `Fc1ccc(-n2cc(CNCCc3ccncc3)c(-c3ccccc3Cl)n2)cc1` as the compound, how does the AC50 read?
A: Its AC50 is 2.24 µM [falling, partial curve, poor fit].

Q: For `CCN(CC)CCOC(=O)C12CC3CC(CC(C3)C1)C2`, which AC50 is on record?
A: The AC50 was 3.16 µM [rising, full curve, poor fit].

Q: Which AC50 does the source give for `COCCN(C(=O)COC(=O)c1ccc(C)s1)c1c(N)n(Cc2ccccc2)c(=O)[nH]c1=O` here?
A: Its AC50 is 32.6 µM [rising, partial curve, poor fit].

Q: With `O=C(/C=C/c1ccc2c(c1)S(=O)(=O)N(Cc1ccccc1)[C@H]2CC(=O)N1CCOCC1)N1CCOCC1` as the compound, how does the AC50 read?
A: Its AC50 is 4.11 µM [rising, full curve, poor fit].

Q: For `Oc1ccc(/C=N/NC(=S)Nc2cccnc2)cc1O`, which AC50 is on record?
A: The AC50 was 20.6 µM [falling, single point].

Q: With `CNc1ccccc1C(=O)OCC(=O)Nc1ccc2c(c1)OCO2` as the compound, how does the AC50 read?
A: Its AC50 is 13 µM [falling, partial curve, poor fit].

Q: For `CCOC(=O)CNC(=O)CN1CCCN(S(=O)(=O)c2ccc(Br)s2)CC1`, which AC50 is on record?
A: Its AC50 is 6.31 µM [rising, single point].

Q: For `Nc1nc(N2CCCCC2)nc(N2CCCCC2)n1`, which AC50 is on record?
A: The AC50 was 8.2 µM [rising, partial curve, poor fit].

Q: Which AC50 does the source give for `CNC(=O)c1cc(S(=O)(=O)N(C)C)ccc1Cl` here?
A: The AC50 was 20.6 µM [rising, single point].

Q: For `CCOC(=O)c1[nH]c(C)c(C(=O)Nc2ccc3c(c2)CCC3)c1C`, which AC50 is on record?
A: The AC50 was 6.31 µM [rising, partial curve].

Q: For `O=C(N/N=C1\CCCc2ccccc21)C(O)c1ccccc1` (stereo not drawn), which AC50 is on record?
A: Its AC50 is 35.5 µM [falling, single point].

Q: Which AC50 does the source give for `O=C(O)c1cccc(Nc2c([N+](=O)[O-])c(=O)oc3ccccc23)c1` here?
A: Its AC50 is 7.94 µM [falling, partial curve].

Q: With `c1cc(SC2CCCCC2)cc(-c2nc3cnccn3c2NC2CCCCC2)c1` as the compound, how does the AC50 read?
A: Its AC50 is 3.26 µM [falling, partial curve, poor fit].

Q: Which AC50 does the source give for `COC(=O)c1c(C)[nH]c(C(=O)CN2C(=O)C3CC=CCC3C2=O)c1C` (stereo not drawn) here?
A: Its AC50 is 20.6 µM [falling, partial curve, poor fit].
